Experimental findings from US5175146A (Vical, Inc., priority 1990, dated 1992) are described below.

The data set in a line: Boc solid-phase peptide synthesis; Boc-Pro-MBHA; DCC/HOBt. Particulars: whole synthesis, analytical HPLC; amino acid analysis, scale 1 mmol.

As to [(SerThr)2 -Lys-7]-cCT(7-32), the “final HPLC purity” value is reported as “better than 95%”.
